PubChem BioAssay AID504786, Drosophila RNAi Screening Center | 2011
The screen tested about 21,000 reagents; shown is an unselected part of those with a known target gene and a result. 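Primary screen; positive scores mean lost reporter signal, so the sign may be inverted from the usual convention.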 The numbers tell different reagents against one gene apart. Names joined by + are all predicted targets of the reagent.

- Test: 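Knock-downs reducing HIF reporter induction by the iron chelator DFO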 (primary screen)
- Cell system: Drosophila S2 cells with a stable HIF luciferase reporter
- Reagent: long dsRNA against Drosophila genes, about 0.2 µg dsRNA per well of a 384-well plate
- Timing: three days of knock-down, then 20 h of DFO before reading
- Treatment: desferrioxamine (DFO) at 100 µM, an iron chelator that mimics hypoxia, for 20 h
- Read-out: 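HIF reporter luminescence in cells given 100 µM DFO for 20 h, using the mouse ldh-a hypoxia-response element, scored as per-plate z-scores; higher means greater loss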
- Direction: z-score: higher = stronger loss of HIF reporter signal

no.	gene	reagent	z-score, replicate 1	z-score, replicate 2	z-score, replicate 3	z-score, replicate 4
1	Aatf (GeneID 33943)	1	-0.3	0.1		
2	stmA (GeneID 35865)	1	-0.1	-0.3		
3	stmA (GeneID 35865)	2	-0.2	-0.2		
4	CG42366 (GeneID 34319)	1	-0.1	-0.3		
5	Idgf2 (GeneID 34979)	1	-0.2	-0.4		
6	CG12947 (GeneID 41201)	1	-0.2	2		
7	Bgb (GeneID 38198)	1	-0.2	0.1		
8	CG14000 (GeneID 33820)	1	-0.3	0		
9	nom (GeneID 41038)	1	-0.4	-0.8		
10	PH4alphaNE2 (GeneID 43628)	1	-0.3	-0.2		
11	melt (GeneID 38785)	1	-0.2	-0.1		
12	CG44251 (GeneID 36429)	1	-0.3	0		
13	CG15020 (GeneID 38544)	1	-0.2	-0.5		
14	Npc2c (GeneID 41233)	1	-0.3	-0.5		
15	Eaat1 (GeneID 34251)	1	-0.3	-0.3		
16	Atg101 (GeneID 32871)	1	-0.7	-0.9		
17	sals (GeneID 41377)	1	-0.2	-0.6		
18	sals (GeneID 41377)	2	-0.3	0.8		
19	CG32814 (GeneID 318223)	1	0	-0.2		
20	NimB5 (GeneID 34815)	1	-0.5	-0.6		
21	CG34025 (GeneID 3885633)	1	-0.3	-0.2		
22	Sprn (GeneID 39344)	1	-0.3	-0.3		
23	cutlet (GeneID 44637)	1	-0.3	0		
24	Ns2 (GeneID 36989)	1	0.2	-0.2		
25	Fit2 (GeneID 39907)	1	-0.3	-0.3		
26	CG14891 (GeneID 42013)	1	-0.2	-0.6		
27	CG1662 (GeneID 32296)	1	-0.2	-0.2		
28	wech (GeneID 44653)	1	0	-0.1		
29	UQCR-14L (GeneID 43369)	1	-0.6	-0.8		
30	RpS14a (GeneID 47218)	1	5.6	4.6		
31	CG10068 (GeneID 40852)	1	-0.3	-0.5		
32	CG2854 (GeneID 31219)	1	-0.1	0.5		
33	CG31897 (GeneID 319011)	1	-0.5	-0.3		
34	RpL22 (GeneID 31022)	1	-0.3	-0.6	5.4	8
35	CG11030 (GeneID 33805)	1	-0.2	0.5		
36	Cdk5 (GeneID 36727)	1	-0.2	0.1		
37	pio (GeneID 37929)	1	-0.1	0		
38	CG10459 (GeneID 36000)	1	-0.3	-0.3		
39	lcs (GeneID 33120)	1	-0.3	-0.7		
40	Atg12 (GeneID 39383)	1	-0.1	0		
41	HSPBAP1 (GeneID 43329)	1	-0.3	-0.6		
42	Prosalpha1R + Prosalpha1	1	4.2	4.4		
43	CG14570 (GeneID 40416)	1	-0.2	-0.1		
44	Ostgamma (GeneID 34137)	1	-0.1	0.1		
45	Mob3 (GeneID 34372)	1	-0.4	-0.3		
46	CG2921 (GeneID 37515)	1	-0.3	-0.1		
47	l(2)41Ab (GeneID 5740691)	1	-0.5	0		
48	Ae2 (GeneID 39147)	1	-0.1	-0.3		
49	Ae2 (GeneID 39147)	2	-0.1	0.4		
50	CG17742 (retired record) (GeneID 38787)	1	2.8	5.3		
51	CG12983 (GeneID 40319)	1	-0.3	-0.6		
52	Duox (GeneID 33477)	1	-0.3	-0.8		
53	Vsx2 (GeneID 31469)	1	-0.5	-0.3	-0.3	-0.1
54	Vsx2 (GeneID 31469)	2	-0.4	0		
55	Vsx2 (GeneID 31469)	3	-0.3	-0.3	-0.7	0
56	Vsx2 (GeneID 31469)	4	-0.3	-0.5	2.9	0.8
57	CG42249 (GeneID 32043)	1	-0.2	-0.2		
58	CG42249 (GeneID 32043)	2	-0.1	-0.2		
59	CG5567 (GeneID 39986)	1	-0.4	-0.9		
60	CG18666 (GeneID 50441)	1	-0.2	-0.2		
61	ocn (GeneID 43567)	1	-0.2	-0.2		
62	CG8320 + ATPCL	1	-0.4	-0.6		
63	LManIII (GeneID 34203)	1	-0.1	0.2		
64	KCNQ (GeneID 36071)	1	0.1	0.4		
65	KCNQ (GeneID 36071)	2	-0.4	-0.1		
66	RpL23 (GeneID 37628)	1	7.9	6.5		
67	CG16700 (GeneID 32694)	1	-0.3	-0.4		
68	MnM (GeneID 38384)	1	-0.2	-0.2		
69	rl (GeneID 3354888)	1	0.2	0.7		
70	rl (GeneID 3354888)	2	0.2	0.3		
71	CG6592 (GeneID 38687)	1	-0.3	-0.5		
72	lace (GeneID 34910)	1	-0.4	-0.2		
73	CG2964 (GeneID 33475)	1	0.2	0.5		
74	Bili (GeneID 43019)	1	0.4	0.4		
75	cyst (GeneID 35237)	1	-0.3	-0.3		
76	Top3beta (GeneID 31565)	1	-0.3	-0.5		
77	Sox15 (GeneID 36575)	1	0.9	1.3		
78	CG4669 (GeneID 38608)	1	-0.4	-0.2		
79	mbo (GeneID 41562)	1	0.2	0.3		
80	CG31013 (GeneID 326111)	1	-0.3	-0.3		
81	CG13081 (GeneID 35245)	1	-0.2	-0.2		
82	CG34300 (GeneID 5740334)	1	-0.1	-0.2		
83	CG3817 (GeneID 41805)	1	-0.3	0.2		
84	CG15429 (GeneID 33637)	1	0	0		
85	tud (GeneID 37417)	1	-0.3	-0.4		
86	stau (GeneID 37065)	1	-0.2	-0.8		
87	fray (GeneID 44233)	1	-0.3	-0.5		
88	cad (GeneID 35341)	1	0.2	1		
89	COX7A (GeneID 50002)	1	2.4	2.3		
90	CG3663 (GeneID 37944)	1	0	0.3		
91	CG2162 (GeneID 38360)	1	0.3	1		
92	l(2)k14505 (GeneID 35399)	1	0	-0.2		
93	CG14990 (GeneID 38486)	1	-0.3	-0.5		
94	shv (GeneID 33220)	1	0.1	-0.1		
95	CG31459 (GeneID 318746)	1	-0.2	0		
96	CG1688 (GeneID 36005)	1	-0.2	-0.4		
97	CG6333 (GeneID 39953)	1	-0.2	-0.2		
98	CG5805 (GeneID 42950)	1	-0.2	-0.2		
99	cactin (GeneID 33043)	1	1.9	1.8		
100	slp2 (GeneID 33608)	1	-0.3	-0.2		
101	CG2926 (GeneID 40676)	1	-0.3	-0.5		
102	Sur (GeneID 34350)	1	-0.1	-0.5		
103	Hey (GeneID 35764)	1	1.2	5.2		
104	if (GeneID 32661)	1	0.1	-0.7		
105	Ctr9 (GeneID 38149)	1	-0.2	-0.4		
106	Obp44a (GeneID 35789)	1	-0.3	-0.4		
